The target of assay [1] is T1, HA-DDRGK1 (UniProt Q96HY6).
T1 sequence: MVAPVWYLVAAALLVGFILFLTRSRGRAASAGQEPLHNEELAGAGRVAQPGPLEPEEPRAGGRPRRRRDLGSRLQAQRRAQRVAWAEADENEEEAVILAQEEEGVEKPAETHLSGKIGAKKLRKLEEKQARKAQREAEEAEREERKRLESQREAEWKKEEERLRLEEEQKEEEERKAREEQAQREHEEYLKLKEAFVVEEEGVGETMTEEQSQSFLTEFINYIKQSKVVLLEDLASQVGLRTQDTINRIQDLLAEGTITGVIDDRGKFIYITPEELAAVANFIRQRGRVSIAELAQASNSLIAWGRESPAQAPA
In words: co-IP; Flag-Eg5, HA-UFL1 or HA-DDRGK1 expressed in HEK293T cells, respectively; lysates precipitated with anti-Flag or anti-HA beads; western blot. Background: Immunoblotting shows a protein as a band on a membrane.

Sequences of proteins named here, by UniProt entry; tags and fusion partners are left off.
UniProt O94874: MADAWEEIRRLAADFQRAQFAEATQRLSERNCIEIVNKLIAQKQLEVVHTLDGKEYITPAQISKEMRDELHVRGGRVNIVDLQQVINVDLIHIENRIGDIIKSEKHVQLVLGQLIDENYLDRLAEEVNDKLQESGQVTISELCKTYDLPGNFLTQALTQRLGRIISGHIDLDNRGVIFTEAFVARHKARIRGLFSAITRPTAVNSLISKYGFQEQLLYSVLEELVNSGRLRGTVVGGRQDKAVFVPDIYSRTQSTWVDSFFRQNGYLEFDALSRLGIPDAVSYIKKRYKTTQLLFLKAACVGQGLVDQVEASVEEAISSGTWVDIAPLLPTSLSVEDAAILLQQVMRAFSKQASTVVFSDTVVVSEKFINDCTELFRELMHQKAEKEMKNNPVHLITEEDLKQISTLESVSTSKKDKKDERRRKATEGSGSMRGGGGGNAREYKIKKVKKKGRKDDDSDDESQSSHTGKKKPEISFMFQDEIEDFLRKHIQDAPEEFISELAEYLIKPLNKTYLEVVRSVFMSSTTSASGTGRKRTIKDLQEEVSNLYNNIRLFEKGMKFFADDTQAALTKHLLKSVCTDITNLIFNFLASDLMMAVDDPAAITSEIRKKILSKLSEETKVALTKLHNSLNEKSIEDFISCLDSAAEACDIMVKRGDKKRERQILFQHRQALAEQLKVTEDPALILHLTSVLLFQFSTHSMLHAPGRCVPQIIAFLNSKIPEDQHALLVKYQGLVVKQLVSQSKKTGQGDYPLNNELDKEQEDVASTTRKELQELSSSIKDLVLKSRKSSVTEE
UniProt P52732: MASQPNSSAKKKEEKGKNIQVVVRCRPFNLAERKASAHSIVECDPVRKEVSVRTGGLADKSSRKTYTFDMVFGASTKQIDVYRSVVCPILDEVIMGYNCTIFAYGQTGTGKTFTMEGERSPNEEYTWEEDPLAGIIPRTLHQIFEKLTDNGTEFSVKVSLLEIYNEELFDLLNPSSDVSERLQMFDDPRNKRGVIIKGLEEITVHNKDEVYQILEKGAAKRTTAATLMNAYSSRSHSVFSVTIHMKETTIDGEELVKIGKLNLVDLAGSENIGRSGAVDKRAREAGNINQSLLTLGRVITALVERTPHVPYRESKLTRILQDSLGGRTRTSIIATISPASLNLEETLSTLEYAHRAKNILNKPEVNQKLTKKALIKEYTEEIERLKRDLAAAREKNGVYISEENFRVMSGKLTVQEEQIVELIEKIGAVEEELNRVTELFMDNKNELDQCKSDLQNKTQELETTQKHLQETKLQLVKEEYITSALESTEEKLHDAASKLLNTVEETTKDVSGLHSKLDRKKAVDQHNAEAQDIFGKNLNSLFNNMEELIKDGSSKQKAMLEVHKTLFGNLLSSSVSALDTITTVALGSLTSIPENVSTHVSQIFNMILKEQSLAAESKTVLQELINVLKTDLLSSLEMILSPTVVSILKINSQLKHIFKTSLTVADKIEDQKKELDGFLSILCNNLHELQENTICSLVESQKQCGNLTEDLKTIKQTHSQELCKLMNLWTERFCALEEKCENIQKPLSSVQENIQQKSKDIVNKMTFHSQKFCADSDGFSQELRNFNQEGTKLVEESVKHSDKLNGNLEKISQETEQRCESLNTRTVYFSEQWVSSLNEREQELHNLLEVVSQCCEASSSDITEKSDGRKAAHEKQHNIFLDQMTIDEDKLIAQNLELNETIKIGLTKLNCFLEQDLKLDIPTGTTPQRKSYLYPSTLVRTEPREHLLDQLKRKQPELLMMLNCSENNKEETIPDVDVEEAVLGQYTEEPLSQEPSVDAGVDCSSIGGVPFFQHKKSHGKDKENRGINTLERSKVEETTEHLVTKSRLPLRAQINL

Assay [2] addresses HA-UFL1 (UniProt O94874). Described as above.

No constants are given. Whether binding was seen depends on the method and setting. In cells and extracts the contact can be indirect. Some binding calls cover weakened binding; strength is not graded here. For some assays here: Where a sequence is shown, tags or fusion partners need not be part of it.

For “Kinesin-5 (Eg5), endogenous (from UniProt P52732 1-1056)”, the binding entry in assay [1] and in assay [2] was “binds” in each case.

The values above are taken from article PMC11291904.
